Experiments:
[1] = test system: ovarian cancer samples; assay: Relative LC-MS quantitation of HLA-presented peptides: presentation and over-presentation on ovarian cancer vs a panel of normal tissues (presentation score); parameters: species or system human; key: +++: very highly over-presented on tumors compared to a panel of normal tissues; ++: highly over-presented on tumors compared to a panel of normal tissues; +: over-presented on tumors compared to a panel of normal tissues; conditions: over-presentation on tumors compared to a panel of normal tissues
[2] = test system: additional tumor types; assay: LC-MS detection and over-presentation of the peptides on additional tumor types, cell lines and primary cultures; parameters: species or system human; conditions: for Other relevant organs/ cancerous diseases: Table 4A: additional tumor types on which the peptide was found, over-presented on more than 5% of measured tumor samples, or presented on more than 5% with ratio of geometric means tumor vs normal tissues larger than 3; for Additional organs/cancerous diseases: amendment of Table 4: additional tumor types showing over-presentation (including specific presentation) on more than 5% of measured tumor samples, or presentation on more than 5% with ratio of geometric means tumor vs normal tissues larger than 3

Substance	Peptide Presentation (presentation score) [1]	Other relevant organs/ cancerous diseases [2]	Additional organs/cancerous diseases [2]
2 (SLLEADPFL; listed as Homo sapiens) [compound 2]	+++	Esophageal Cancer	CLL, Uterine Cancer, Gallbladder Cancer and Bile Duct Cancer
3 (SLASKLTTL; listed as Homo sapiens) [compound 3]	+++		Uterine Cancer
5 (HLTEVYPEL; listed as Homo sapiens) [compound 5]	+++		Urinary Bladder Cancer, Uterine Cancer
6 (VLVSDGVHSV; listed as Homo sapiens) [compound 6]	+++	SCLC, Brain Cancer, BrCa, MCC, Esophageal Cancer	Melanoma, Urinary Bladder Cancer, Uterine Cancer, HNSCC
7 (SLVGLLLYL; listed as Homo sapiens) [compound 7]	+++	RCC, PC, BrCa	Gallbladder Cancer and Bile Duct Cancer, AML
8 (FTLGNVVGMYL; listed as Homo sapiens) [compound 8]	+++		Melanoma, Urinary Bladder Cancer, Uterine Cancer
9 (GAAKDLPGV; listed as Homo sapiens) [compound 9]	++	RCC, GC, HCC, Urinary bladder Cancer	Esophageal Cancer
10 (FLATFPLAAV; listed as Homo sapiens) [compound 10]	+++	Urinary bladder Cancer	
13 (YLMDESLNL; listed as Homo sapiens) [compound 13]	+++		NSCLC, Brain Cancer, BRCA, Melanoma
14 (AAYGGLNEKSFV; listed as Homo sapiens) [compound 14]	+++	HCC, Urinary bladder Cancer	CLL, Esophageal Cancer
15 (VLLTFKIFL; listed as Homo sapiens) [compound 15]	+++		Uterine Cancer, NHL
16 (VLFQGQASL; listed as Homo sapiens) [compound 16]	++		Melanoma, Uterine Cancer, AML, NHL
17 (GLLPGDRLVSV; listed as Homo sapiens) [compound 17]	+++	NSCLC, SCLC, BrCa	
18 (YLVAKLVEV; listed as Homo sapiens) [compound 18]	+++		NSCLC, BRCA, Urinary Bladder Cancer, HNSCC
20 (RMIEYFIDV; listed as Homo sapiens) [compound 20]	+++	SCLC, HCC, MCC	
21 (VLDELDMEL; listed as Homo sapiens) [compound 21]	+++		Melanoma
23 (VLLDDIFAQL; listed as Homo sapiens) [compound 23]	+++		CLL, Uterine Cancer, AML

Substance	Peptide Presentation (presentation score) [1]	Other relevant organs/ cancerous diseases [2]	Additional organs/cancerous diseases [2]
24 (SLSDGLEEV; listed as Homo sapiens) [compound 24]	++	CRC, PC, Urinary bladder Cancer	NSCLC, BRCA, Melanoma, Uterine Cancer, HNSCC
26 (ALLELAEEL; listed as Homo sapiens) [compound 26]	+++	Leukemia, Esophageal Cancer	BRCA, Melanoma, Urinary Bladder Cancer, Uterine Cancer, Gallbladder Cancer and Bile Duct Cancer, AML, NHL, HNSCC
27 (ILADIVISA; listed as Homo sapiens) [compound 27]	+	NSCLC, SCLC, PC, BrCa, Esophageal Cancer	Melanoma, Uterine Cancer, Gallbladder Cancer and Bile Duct Cancer
28 (QLLDETSAITL; listed as Homo sapiens) [compound 28]	+++	SCLC, HCC, Leukemia, Urinary bladder Cancer	CLL
29 (KMLGIPISNILMV; listed as Homo sapiens) [compound 29]	++		Urinary Bladder Cancer, Gallbladder Cancer and Bile Duct Cancer
30 (LILDWVPYI; listed as Homo sapiens) [compound 30]	++		Melanoma, Uterine Cancer, HNSCC
31 (YLAPELFVNV; listed as Homo sapiens) [compound 31]	+++	SCLC, GC, Leukemia, Melanoma	BRCA, Uterine Cancer
32 (KLDDLTQDLTV; listed as Homo sapiens) [compound 32]	+++		SCLC, Esophageal Cancer, Urinary Bladder Cancer, Gallbladder Cancer and Bile Duct Cancer, HNSCC
33 (VLLSLLEKV; listed as Homo sapiens) [compound 33]	++	Leukemia	CLL, Melanoma
34 (ILVEADSLWVV; listed as Homo sapiens) [compound 34]	+++	SCLC, PrC, Leukemia, Melanoma	AML
36 (YVLEDLEVTV; listed as Homo sapiens) [compound 36]	+++	SCLC, HCC, Leukemia	NSCLC, CLL, BRCA, Melanoma, Urinary Bladder Cancer, Uterine Cancer, Gallbladder Cancer and Bile Duct Cancer, NHL, HNSCC
38 (FLLEDDIHVS; listed as Homo sapiens) [compound 38]	+++	SCLC, Leukemia, Melanoma	CLL, Urinary Bladder Cancer, NHL
40 (TLLVKVFSV; listed as Homo sapiens) [compound 40]	+++		Melanoma
42 (VLLQKIVSA; listed as Homo sapiens) [compound 42]	+++		Esophageal Cancer, AML
43 (VLSSLEINI; listed as Homo sapiens) [compound 43]	+		NHL
45 (SLWQDIPDV; listed as Homo sapiens) [compound 45]	+++	NSCLC, SCLC	BRCA, Urinary Bladder Cancer, HNSCC
47 (ILLSVPLLVV; listed as Homo sapiens) [compound 47]	+++	SCLC, Leukemia, Gallbladder Cancer, Bile Duct Cancer	CLL, Uterine Cancer
